For experiment [1], the target named is T1, cognate immunity protein of the rRNase E3 (E. coli) (UniProt P02984).
T1 sequence: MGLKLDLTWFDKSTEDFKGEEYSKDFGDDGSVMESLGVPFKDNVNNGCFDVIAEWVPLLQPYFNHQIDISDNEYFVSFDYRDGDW
The experiment in a line: co-purification (metal chelate ch).

Sequences of proteins named here, by UniProt entry; tags and fusion partners are left off. A change or cut given only in a name is not applied to a line headed by its entry.
UniProt Q03708: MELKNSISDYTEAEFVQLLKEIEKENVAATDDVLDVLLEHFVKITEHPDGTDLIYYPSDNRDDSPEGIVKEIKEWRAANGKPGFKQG
UniProt P00646: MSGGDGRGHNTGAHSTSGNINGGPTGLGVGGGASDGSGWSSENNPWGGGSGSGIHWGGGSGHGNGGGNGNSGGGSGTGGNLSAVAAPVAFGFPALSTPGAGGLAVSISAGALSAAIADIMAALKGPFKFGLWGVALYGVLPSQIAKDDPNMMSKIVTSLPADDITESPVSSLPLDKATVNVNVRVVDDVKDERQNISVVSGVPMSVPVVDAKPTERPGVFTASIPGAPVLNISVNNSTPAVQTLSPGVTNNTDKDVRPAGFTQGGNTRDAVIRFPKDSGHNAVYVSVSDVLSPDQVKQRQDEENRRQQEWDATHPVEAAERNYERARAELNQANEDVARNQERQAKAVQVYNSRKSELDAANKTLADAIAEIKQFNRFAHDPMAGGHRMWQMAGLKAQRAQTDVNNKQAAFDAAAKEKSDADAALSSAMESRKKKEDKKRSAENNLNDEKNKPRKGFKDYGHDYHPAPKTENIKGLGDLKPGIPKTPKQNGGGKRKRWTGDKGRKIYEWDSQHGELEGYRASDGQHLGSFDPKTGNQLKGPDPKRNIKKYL
UniProt Q47112: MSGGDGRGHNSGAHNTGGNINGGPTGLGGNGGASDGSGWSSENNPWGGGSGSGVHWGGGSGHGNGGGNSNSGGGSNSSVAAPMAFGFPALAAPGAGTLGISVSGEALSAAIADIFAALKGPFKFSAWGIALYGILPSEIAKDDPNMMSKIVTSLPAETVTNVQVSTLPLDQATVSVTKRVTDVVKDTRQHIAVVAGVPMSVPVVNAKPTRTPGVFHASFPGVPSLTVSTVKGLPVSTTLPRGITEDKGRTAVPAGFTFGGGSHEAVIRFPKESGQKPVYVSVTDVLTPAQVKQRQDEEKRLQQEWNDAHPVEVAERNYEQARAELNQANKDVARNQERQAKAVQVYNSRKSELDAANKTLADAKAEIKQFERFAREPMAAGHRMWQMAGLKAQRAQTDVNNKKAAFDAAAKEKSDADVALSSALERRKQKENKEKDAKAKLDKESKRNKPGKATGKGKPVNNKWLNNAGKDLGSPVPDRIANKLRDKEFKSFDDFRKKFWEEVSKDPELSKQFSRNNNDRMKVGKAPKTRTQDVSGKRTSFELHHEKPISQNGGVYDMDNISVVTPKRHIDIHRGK

In experiment [2] the target is Im7, cognate immunity protein of the colicin E7 DNase (E. coli) (UniProt Q03708). The experiment in a line: co-purification (metal chelate chromatography); untagged nuclease domain co-expressed in E. coli BL21(DE3) with its cognate immunity protein carrying a C-terminal His-tag; complex held on and purified from the metal chelate column; immunity protein removed afterwards only under denaturing or acid conditions.

Data on two substances can be found in paper PMC3460906.

These are yes or no findings as the source states them, for the method shown. Binding seen in cells or lysates may run through a third protein. A result given as binding can be weak or reduced; the word gives no strength.

With “colicin E3 ribosomal RNase domain (from UniProt P00646) (domain or fragment)”, in experiment [1], the binding result is reported as “binds”.
Consider “colicin E7 DNase domain (from UniProt Q47112) (domain or fragment)”, for which the binding result in experiment [2] is recorded as “binds”.
